Measurements reported in PubChem BioAssay AID720505 (Drosophila RNAi Screening Center, 2013).

Purpose: 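Knock-downs that reduce calcium influx once internal stores are emptied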 (primary screen)
Cells: Drosophila S2R+ cells
Reagent: long dsRNA against Drosophila genes
Conditions: thapsigargin (2 µM) in calcium-free buffer to empty internal stores, then 2 mM calcium added back
Read-out: 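Stores emptied by 2 µM thapsigargin without calcium, then 2 mM calcium re-added; fluo-4 fluorescence followed by FLIPR in 384-well plates, per-well averaged endpoint, raw; two screen passes, some wells retested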
Scale: calcium signal and retest calcium signal: higher = more calcium entry after store depletion
Call rule: 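About 1500 genes called as lowering calcium entry, by varying amounts, judged against per-plate control wells with STIM1 as positive and Rho1 as negative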
Calls: active = called as lowering calcium entry; inactive = not called
In all, the deposit lists about 20,000 reagents; below is a random part of those with a known target gene and a result. Over the whole deposit, about 2,100 (10%) got an active call. 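Raw plate signals without normalisation; calls rest on control-based scores that were not deposited; replicate 2 separates called from uncalled poorly.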 Entries without a mark were called inactive. Reagent sequences are not shown. The record does not give: the amount of reagent, the time to read-out.

Cyp304a1 (Cytochrome P450 304a1) [DRSC16623] — calcium signal, replicate 1: 118; calcium signal, replicate 2: 95.3
hh (hedgehog) [DRSC16965] — calcium signal, replicate 1: 219; calcium signal, replicate 2: 233
Drep2 (DNA fragmentation factor-related protein 2) [DRSC07528] — calcium signal, replicate 1: 221; calcium signal, replicate 2: 119
nej (nejire) [DRSC18006] — calcium signal, replicate 1: 64 (active); calcium signal, replicate 2: 104
nej (nejire) [DRSC18801] — calcium signal, replicate 1: 121; calcium signal, replicate 2: 179
Ets98B (Ets at 98B) [DRSC16666] — calcium signal, replicate 1: 72.2 (active); calcium signal, replicate 2: 108; retest calcium signal, replicate 1: 119; retest calcium signal, replicate 2: 81.8
abo (abnormal oocyte) [DRSC02926] — calcium signal, replicate 1: 160; calcium signal, replicate 2: 138
CG30484 [DRSC05457] — calcium signal, replicate 1: 123; calcium signal, replicate 2: 132
ihog (interference hedgehog) [DRSC03157] — calcium signal, replicate 1: 104; calcium signal, replicate 2: 120
Trap1 [DRSC05019] — calcium signal, replicate 1: 152; calcium signal, replicate 2: 102
Usp12-46 (Ubiquitin-specific protease 12/46) [DRSC16175] — calcium signal, replicate 1: 154; calcium signal, replicate 2: 90.4
CG10550 [DRSC14251] — calcium signal, replicate 1: 84.2; calcium signal, replicate 2: 94.5

Reagents listed so far with an active call (2):
nej (nejire) [DRSC18006] — calcium signal, replicate 1: 64 (active); calcium signal, replicate 2: 104
Ets98B (Ets at 98B) [DRSC16666] — calcium signal, replicate 1: 72.2 (active); calcium signal, replicate 2: 108; retest calcium signal, replicate 1: 119; retest calcium signal, replicate 2: 81.8

More records follow:
CG13227 [DRSC06347] — calcium signal, replicate 1: 74.7; calcium signal, replicate 2: 103; retest calcium signal, replicate 1: 75.3; retest calcium signal, replicate 2: 73.6
CG5191 [DRSC15733] — calcium signal, replicate 1: 163; calcium signal, replicate 2: 267
CG5191 [DRSC15734] — calcium signal, replicate 1: 193; calcium signal, replicate 2: 185
CG5191 [DRSC21559] — calcium signal, replicate 1: 162; calcium signal, replicate 2: 98.5
CG8093 [DRSC07078] — calcium signal, replicate 1: 111; calcium signal, replicate 2: 143
CG2127 [DRSC06821] — calcium signal, replicate 1: 141; calcium signal, replicate 2: 158
Rpn2 (Regulatory particle non-ATPase 2) [DRSC16839] — calcium signal, replicate 1: 36.1 (active); calcium signal, replicate 2: 60.7
Chd64 [DRSC08649] — calcium signal, replicate 1: 119; calcium signal, replicate 2: 84.3
Srx (Sulfiredoxin) [DRSC20005] — calcium signal, replicate 1: 64 (active); calcium signal, replicate 2: 120
RanBPM (Ran-binding protein M) [DRSC06079] — calcium signal, replicate 1: 123; calcium signal, replicate 2: 148
Ddr (Discoidin domain receptor) [DRSC00922] — calcium signal, replicate 1: 95.4; calcium signal, replicate 2: 120
Ddr (Discoidin domain receptor) [DRSC00923] — calcium signal, replicate 1: 100; calcium signal, replicate 2: 149
Ddr (Discoidin domain receptor) [DRSC02150] — calcium signal, replicate 1: 42.7 (active); calcium signal, replicate 2: 111
Ddr (Discoidin domain receptor) [DRSC03229] — calcium signal, replicate 1: 199; calcium signal, replicate 2: 110; retest calcium signal, replicate 1: 97; retest calcium signal, replicate 2: 84.3
Ddr (Discoidin domain receptor) [DRSC03230] — calcium signal, replicate 1: 50.6 (active); calcium signal, replicate 2: 139
Ddr (Discoidin domain receptor) [DRSC22818] — calcium signal, replicate 1: 68.7; calcium signal, replicate 2: 96.3
Hsp26 (Heat shock protein 26) [DRSC11189] — calcium signal, replicate 1: 103; calcium signal, replicate 2: 91.7
Ostgamma (Oligosaccharide transferase gamma subunit) [DRSC03074] — calcium signal, replicate 1: 164; calcium signal, replicate 2: 225
tank [DRSC00461] — calcium signal, replicate 1: 179; calcium signal, replicate 2: 111
phu (phurba tashi) [DRSC16390] — calcium signal, replicate 1: 107; calcium signal, replicate 2: 102
Rich (RIC1 homolog) [DRSC11607] — calcium signal, replicate 1: 133; calcium signal, replicate 2: 132
Rcd-1 (Required for cell differentiation 1) [DRSC19569] — calcium signal, replicate 1: 76.3 (active); calcium signal, replicate 2: 234
CG9672 [DRSC20201] — calcium signal, replicate 1: 121; calcium signal, replicate 2: 111
